Data from PMC3355077.
No constants are given. Whether binding was seen depends on the method and setting. Binding seen in cells or lysates may run through a third protein. Some binding calls cover weakened binding; strength is not graded here.

Chains of the proteins cited; added tags and fusions are not shown. Lines headed by an entry give the natural chain unless they say otherwise; changes in a name come on top. A line that says so, or that is headed by a name, gives the form on record, which may keep a tag or linker. Residues count along the entry.
GST-tagged Psip1 PWWP domain (Q99JF8, residues 1-97): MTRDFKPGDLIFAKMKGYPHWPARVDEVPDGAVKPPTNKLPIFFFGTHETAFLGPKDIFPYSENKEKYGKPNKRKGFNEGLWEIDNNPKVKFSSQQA
GST-p52 (Q99JF8, form named): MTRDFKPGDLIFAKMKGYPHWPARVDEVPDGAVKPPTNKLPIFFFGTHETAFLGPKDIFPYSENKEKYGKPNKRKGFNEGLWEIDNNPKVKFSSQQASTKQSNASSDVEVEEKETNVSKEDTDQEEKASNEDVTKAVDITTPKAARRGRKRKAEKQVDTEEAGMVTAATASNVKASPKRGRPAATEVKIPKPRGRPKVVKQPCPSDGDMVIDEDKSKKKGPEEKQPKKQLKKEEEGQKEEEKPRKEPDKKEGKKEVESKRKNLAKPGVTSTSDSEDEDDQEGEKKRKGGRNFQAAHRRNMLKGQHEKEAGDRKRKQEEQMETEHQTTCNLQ
UniProt Q6PDM2: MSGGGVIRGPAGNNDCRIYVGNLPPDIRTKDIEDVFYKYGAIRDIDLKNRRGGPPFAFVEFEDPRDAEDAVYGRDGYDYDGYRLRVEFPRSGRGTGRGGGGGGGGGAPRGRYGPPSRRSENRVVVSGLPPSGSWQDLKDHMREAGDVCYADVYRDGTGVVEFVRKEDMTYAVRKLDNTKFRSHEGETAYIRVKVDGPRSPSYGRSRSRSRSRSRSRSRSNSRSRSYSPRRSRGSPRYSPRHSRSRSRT
UniProt Q07955: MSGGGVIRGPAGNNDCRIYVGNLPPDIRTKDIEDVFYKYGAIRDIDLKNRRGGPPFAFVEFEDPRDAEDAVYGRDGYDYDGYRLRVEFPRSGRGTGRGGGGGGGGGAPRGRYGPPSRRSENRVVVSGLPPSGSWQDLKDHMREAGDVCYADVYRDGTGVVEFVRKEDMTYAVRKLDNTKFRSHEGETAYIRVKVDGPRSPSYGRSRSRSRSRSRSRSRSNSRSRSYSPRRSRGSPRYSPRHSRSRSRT

Experiments:
[1] = target: Psip1/p52 (endogenous) (mouse (endogenous in NIH 3T3 and MEFs)) (UniProt Q99JF8); experiment: co-IP; A300-847 IP from NIH 3T3 nuclear extract, Protein A Dynal beads, 45 min 4°C, washes with 200 mM KCl; immunoblot; for SRSF1 also with RNase A
GST-p52 (mouse) = GST-p52 (mouse) (UniProt Q99JF8); experiment: pull-down; GST-p52 or GST-PWWP on glutathione beads incubated with lysates of 293T cells overexpressing tagged SR proteins, GST lysis buffer, 5 washes; immunoblot with αT7 or αGFP; only the target purified
[2] = target: GST-tagged Psip1 PWWP domain (mouse) (UniProt Q99JF8); experiment: as above

| Substance | binding [1] | binding (GST-p52 (mouse)) | binding [2] |
| --- | --- | --- | --- |
| Srsf1 (endogenous) (from UniProt Q6PDM2 1-248) | binds |  |  |
| T7-SRSF1 (from UniProt Q07955 1-248) |  | binds | no binding |
